Assay results from patent US20230272070A1 (published 2023).
These are yes or no findings as the source states them, for the method shown. Some results given as binding are weak or reduced against the parent protein; the word gives no strength.

B1: F6 antibody (antibody, human IgG1, V domains shown)
VH: EVQLVQSGAEVKKPGESLKISCKGSGYSFTSYWIGWVRQMPGKGLEWMGIIYPGDSDTRYSPSFQGQVTISADKSISTAYLQWSSLKASDTAMYYCARVWYYDFWSGADAFDIWGQGTLVTVSS
VL: EIVMTQSPATLSVSPGERATLSCRASQSVSSNLAWYQQKPGQAPRLLIYGASTRATGIPARFSGSGSGTEFTLTISSLQSEDFAVYYCQQGSLEAPQTFGQGTKVEIK
notes: Tested as human IgG1; also called human IgG1 F6 anti-CD19 antibody
B2: 9G8 antibody (antibody, human IgG1, V domains shown)
VH: EVQLVQSGAEVKKPGESLKISCKGSGYSFTSYWIGWVRQMPGKGLEWMGIIYPGDSDTRYSPSFQGQVTISADKSISTAYLQWSSLKASDTAMYYCARGVSGIYNLHGFDIWGQGTLVTVSS
VL: DIQMTQSPSSLSASVGDRVTITCRASQSISSYLNWYQQKPGKAPKLLIYAASSLQSGVPSRFSGSGSGTDFTLTISSLQPEDFATYYCQQGRFGSPFTFGQGTKVEIK
notes: also called human IgG1 9G8 anti-CD19 antibody
B3: 5F5 antibody (antibody, human IgG1, V domains shown)
VH: EVQLVQSGAEVKKPGESLKISCKGSGYSFTSYWIGWVRQMPGKGLEWMGIIYPGDSDTRYSPSFQGQVTISADKSISTAYLQWSSLKASDTAMYYCARGISGIYNLHGFDIWGQGTLVTVSS
VL: DIQMTQSPSSLSASVGDRVTITCRASQSISSYLNWYQQKPGKAPKLLIYAASSLQSGVPSRFSGSGSGTDFTLTISSLQPEDFATYYCQQASLDSPLTFGQGTKVEIK
notes: Tested as human IgG1; also called human IgG1 5F5 anti-CD19 antibody
B4: 7F11 antibody (antibody, human IgG1, V domains shown)
VH: EVQLVQSGAEVKKPGESLKISCKGSGYSFTSYWIGWVRQMPGKGLEWMGIIYPGDSDTRYSPSFQGQVTISADKSISTAYLQWSSLKASDTAMYYCARGVSGIYNLHGFDIWGQGTLVTVSS
VL: DIQMTQSPSSLSASVGDRVTITCRASQSISSYLNWYQQKPGKAPKLLIYAASSLQSGVPSRFSGSGSGTDFTLTISSLQPEDFATYYCQQGMWDNPFTFGQGTKVEIK
notes: Tested as human IgG1; also called human IgG1 7F11 anti-CD19 antibody

Tests used:
[1] = molecular target: cynomolgus CD19 (cynomolgus monkey); assay: flow cytometry on cynomolgus PBMC (B cells), 30 and 3 µg/mL
[2] = molecular target: cynomolgus CD19 (cynomolgus monkey); assay: flow cytometry on CHO cells transfected with cynomolgus CD19

Binder	binding [1]	binding [2]
B1	binds	binds
B2	binds	binds
B3	binds	binds
B4	binds	binds
